Reference: article PMC11274397
These are yes or no findings as the source states them, for the method shown. In cells and extracts the contact can be indirect.

Chains of the proteins cited; added tags and fusions are not shown. Lines headed by an entry give the natural chain unless they say otherwise; changes in a name come on top. A line that says so, or that is headed by a name, gives the form on record, which may keep a tag or linker.
UniProt P67870: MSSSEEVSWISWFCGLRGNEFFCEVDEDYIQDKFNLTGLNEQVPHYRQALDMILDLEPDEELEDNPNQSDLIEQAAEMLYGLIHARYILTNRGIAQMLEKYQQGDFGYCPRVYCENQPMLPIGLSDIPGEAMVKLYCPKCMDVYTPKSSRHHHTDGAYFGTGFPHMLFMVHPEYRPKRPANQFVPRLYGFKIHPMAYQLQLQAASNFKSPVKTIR
ERα36, 36 kD variant of estrogen receptor α (P03372-4, form named): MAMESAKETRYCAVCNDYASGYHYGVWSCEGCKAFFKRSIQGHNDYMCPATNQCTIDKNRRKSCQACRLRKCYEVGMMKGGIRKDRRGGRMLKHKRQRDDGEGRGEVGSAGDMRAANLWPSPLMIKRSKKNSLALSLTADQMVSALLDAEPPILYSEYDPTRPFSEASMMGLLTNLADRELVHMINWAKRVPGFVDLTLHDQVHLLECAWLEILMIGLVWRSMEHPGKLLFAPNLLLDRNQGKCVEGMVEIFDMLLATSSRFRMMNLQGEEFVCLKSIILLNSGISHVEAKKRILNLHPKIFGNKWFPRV

Molecular target: CK2β, regulatory β subunit of protein kinase CK2 (human (endogenous in MCF-7 Tam1)) (UniProt P67870)
Experiment: co-IP; Pierce Classic IP Kit; 1 mg lysate of MCF-7 Tam1 cells, precleared, overnight at 4 °C with antibodies to ERα, HSP90 or CK2β or normal IgG, protein A/G plus-agarose, immunoblot; cells with or without 5 µM CX-4945 (4 h in the legend, 8 h in the text)

Substance: ERα36, 36 kD variant of estrogen receptor α (from UniProt P03372-4 1-310)
- binding: no binding

Substance: Estrogen receptor α, full-length receptor (ERα66) (from UniProt P03372-1 1-595)
- binding: no binding
